{"sequences": {"note": "By UniProt entry, the sequences of proteins in these tests, tags left out. Where a name states a change or a piece, a line headed by the entry shows the natural chain unless it says otherwise.", "UniProt P29558": "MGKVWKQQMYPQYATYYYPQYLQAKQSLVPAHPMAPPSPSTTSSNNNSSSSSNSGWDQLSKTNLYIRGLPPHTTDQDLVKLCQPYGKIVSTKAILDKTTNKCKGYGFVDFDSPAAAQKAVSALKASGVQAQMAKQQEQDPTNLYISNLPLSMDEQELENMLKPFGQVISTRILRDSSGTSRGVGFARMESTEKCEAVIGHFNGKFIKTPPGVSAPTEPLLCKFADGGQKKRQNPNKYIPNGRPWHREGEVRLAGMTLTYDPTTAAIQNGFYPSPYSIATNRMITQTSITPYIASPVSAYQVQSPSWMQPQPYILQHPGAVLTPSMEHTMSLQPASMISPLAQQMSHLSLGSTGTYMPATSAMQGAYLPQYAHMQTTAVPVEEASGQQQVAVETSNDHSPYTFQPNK", "UniProt Q6NZY4": "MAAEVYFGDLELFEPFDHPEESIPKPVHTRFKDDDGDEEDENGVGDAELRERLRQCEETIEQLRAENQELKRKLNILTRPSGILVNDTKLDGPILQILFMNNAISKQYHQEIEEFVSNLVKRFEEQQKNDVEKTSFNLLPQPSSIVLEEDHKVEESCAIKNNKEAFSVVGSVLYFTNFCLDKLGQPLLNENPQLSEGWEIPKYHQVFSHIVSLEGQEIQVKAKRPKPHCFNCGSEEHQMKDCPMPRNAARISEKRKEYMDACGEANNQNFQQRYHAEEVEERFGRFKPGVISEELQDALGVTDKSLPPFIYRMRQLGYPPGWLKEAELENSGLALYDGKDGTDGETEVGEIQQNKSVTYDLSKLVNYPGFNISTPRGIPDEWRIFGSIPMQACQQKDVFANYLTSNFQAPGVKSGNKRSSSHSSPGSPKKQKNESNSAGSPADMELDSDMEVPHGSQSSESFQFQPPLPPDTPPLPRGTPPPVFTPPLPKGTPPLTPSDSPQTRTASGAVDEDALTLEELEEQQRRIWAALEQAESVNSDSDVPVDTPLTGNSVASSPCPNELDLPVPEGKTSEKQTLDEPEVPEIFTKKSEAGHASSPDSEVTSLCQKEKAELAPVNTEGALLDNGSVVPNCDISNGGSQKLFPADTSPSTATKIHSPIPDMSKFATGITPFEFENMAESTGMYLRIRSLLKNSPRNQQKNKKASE", "UniProt P38159": "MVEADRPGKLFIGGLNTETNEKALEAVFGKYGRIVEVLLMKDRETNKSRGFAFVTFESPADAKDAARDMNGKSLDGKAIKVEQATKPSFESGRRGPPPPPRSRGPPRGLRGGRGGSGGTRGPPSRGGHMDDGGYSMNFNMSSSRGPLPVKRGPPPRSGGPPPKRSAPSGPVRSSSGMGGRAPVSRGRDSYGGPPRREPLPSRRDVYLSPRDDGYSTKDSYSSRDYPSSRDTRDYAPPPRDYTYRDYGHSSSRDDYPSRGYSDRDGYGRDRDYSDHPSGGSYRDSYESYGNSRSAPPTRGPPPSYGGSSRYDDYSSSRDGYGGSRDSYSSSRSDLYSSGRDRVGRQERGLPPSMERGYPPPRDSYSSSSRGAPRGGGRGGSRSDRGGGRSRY"}, "source": "paper PMC8441146", "key": {"[1]": {"target": "T1, YTHDC2 (endogenous) (Homo sapiens (HeLa)) (UniProt Q9H6S0)", "T1 sequence (looked up, limits assumed)": "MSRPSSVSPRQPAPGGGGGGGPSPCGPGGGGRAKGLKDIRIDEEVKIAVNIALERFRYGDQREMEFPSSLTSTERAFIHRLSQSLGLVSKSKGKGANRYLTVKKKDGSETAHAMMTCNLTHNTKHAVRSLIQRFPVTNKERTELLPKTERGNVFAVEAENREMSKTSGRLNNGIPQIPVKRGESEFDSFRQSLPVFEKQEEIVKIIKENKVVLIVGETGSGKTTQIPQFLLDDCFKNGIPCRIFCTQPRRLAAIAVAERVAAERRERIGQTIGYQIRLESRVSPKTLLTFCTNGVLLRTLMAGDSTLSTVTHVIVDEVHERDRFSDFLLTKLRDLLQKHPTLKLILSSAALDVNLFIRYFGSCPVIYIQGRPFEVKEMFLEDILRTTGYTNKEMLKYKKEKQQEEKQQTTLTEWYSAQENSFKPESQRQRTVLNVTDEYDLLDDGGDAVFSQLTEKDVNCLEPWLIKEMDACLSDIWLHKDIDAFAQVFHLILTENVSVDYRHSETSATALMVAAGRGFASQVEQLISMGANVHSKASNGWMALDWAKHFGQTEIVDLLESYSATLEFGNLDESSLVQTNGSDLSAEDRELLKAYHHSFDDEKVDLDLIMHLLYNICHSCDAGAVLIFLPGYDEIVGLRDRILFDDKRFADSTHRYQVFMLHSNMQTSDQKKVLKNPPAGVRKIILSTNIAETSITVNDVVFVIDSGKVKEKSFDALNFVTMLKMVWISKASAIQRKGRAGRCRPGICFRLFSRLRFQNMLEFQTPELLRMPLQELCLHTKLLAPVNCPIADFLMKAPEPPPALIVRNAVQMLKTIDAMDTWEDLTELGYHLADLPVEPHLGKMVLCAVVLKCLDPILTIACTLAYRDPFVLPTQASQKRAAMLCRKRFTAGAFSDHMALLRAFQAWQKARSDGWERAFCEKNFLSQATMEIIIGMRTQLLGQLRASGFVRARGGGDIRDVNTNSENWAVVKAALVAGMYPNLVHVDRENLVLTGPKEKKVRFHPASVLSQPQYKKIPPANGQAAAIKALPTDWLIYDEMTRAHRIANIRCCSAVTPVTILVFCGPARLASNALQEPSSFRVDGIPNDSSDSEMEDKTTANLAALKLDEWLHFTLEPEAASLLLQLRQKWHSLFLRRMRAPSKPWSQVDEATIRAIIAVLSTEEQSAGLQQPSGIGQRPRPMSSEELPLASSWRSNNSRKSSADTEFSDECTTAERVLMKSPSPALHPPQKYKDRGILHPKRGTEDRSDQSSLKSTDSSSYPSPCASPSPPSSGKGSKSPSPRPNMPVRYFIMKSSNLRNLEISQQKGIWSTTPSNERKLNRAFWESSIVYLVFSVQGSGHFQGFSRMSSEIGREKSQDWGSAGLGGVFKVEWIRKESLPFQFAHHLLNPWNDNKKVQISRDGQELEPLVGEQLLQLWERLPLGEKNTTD", "assay": "photo-crosslinking pull-down, PRM MS", "details": "RNA 1-9, DNA 10-22, pull-down: HeLa RIPA lysate, 4 C, UV 6 min on ice, 2 M NaCl washes, protein in an extract, label: none on BP, CP carries FAM or biotin and diazirine"}, "[2]": {"target": "RBMS1 (endogenous) (Homo sapiens (HeLa)) (UniProt P29558)", "assay": "photo-crosslinking pull-down, PRM MS, immunoblot", "details": "UV, biotin CP, RNA 1-9, DNA 10-22, pull-down: HeLa RIPA lysate, 4 C, UV 6 min on ice, 2 M NaCl washes, protein in an extract, label: none on BP, CP carries FAM or biotin and diazirine"}, "[3]": {"target": "T2, SSBP1 (endogenous) (Homo sapiens (HeLa)) (UniProt Q04837)", "T2 sequence (looked up, limits assumed)": "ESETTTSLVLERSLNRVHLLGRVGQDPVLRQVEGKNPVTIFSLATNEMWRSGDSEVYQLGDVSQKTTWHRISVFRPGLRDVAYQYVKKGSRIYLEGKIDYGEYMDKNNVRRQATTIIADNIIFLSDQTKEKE", "assay": "photo-crosslinking pull-down, PRM MS, immunoblot", "details": "HeLa lysate, UV, biotin CP; RNA 1-9, DNA 10-22; unmodified A; pull-down: HeLa RIPA lysate, 4 C, UV 6 min on ice, 2 M NaCl washes; protein in an extract; label: none on BP, CP carries FAM or biotin and diazirine"}, "[4]": {"target": "ZCCHC8 (endogenous) (Homo sapiens (HeLa)) (UniProt Q6NZY4)", "assay": "photo-crosslinking pull-down, DIA MS, immunoblot", "details": "UV, biotin CP, RNA 1-9, DNA 10-22, pull-down: HeLa RIPA lysate, 4 C, UV 6 min on ice, 2 M NaCl washes, protein in an extract, label: none on BP, CP carries FAM or biotin and diazirine"}, "[5]": {"target": "T3, DDX1 (endogenous) (Homo sapiens (HeLa)) (UniProt Q92499)", "T3 sequence (looked up, limits assumed)": "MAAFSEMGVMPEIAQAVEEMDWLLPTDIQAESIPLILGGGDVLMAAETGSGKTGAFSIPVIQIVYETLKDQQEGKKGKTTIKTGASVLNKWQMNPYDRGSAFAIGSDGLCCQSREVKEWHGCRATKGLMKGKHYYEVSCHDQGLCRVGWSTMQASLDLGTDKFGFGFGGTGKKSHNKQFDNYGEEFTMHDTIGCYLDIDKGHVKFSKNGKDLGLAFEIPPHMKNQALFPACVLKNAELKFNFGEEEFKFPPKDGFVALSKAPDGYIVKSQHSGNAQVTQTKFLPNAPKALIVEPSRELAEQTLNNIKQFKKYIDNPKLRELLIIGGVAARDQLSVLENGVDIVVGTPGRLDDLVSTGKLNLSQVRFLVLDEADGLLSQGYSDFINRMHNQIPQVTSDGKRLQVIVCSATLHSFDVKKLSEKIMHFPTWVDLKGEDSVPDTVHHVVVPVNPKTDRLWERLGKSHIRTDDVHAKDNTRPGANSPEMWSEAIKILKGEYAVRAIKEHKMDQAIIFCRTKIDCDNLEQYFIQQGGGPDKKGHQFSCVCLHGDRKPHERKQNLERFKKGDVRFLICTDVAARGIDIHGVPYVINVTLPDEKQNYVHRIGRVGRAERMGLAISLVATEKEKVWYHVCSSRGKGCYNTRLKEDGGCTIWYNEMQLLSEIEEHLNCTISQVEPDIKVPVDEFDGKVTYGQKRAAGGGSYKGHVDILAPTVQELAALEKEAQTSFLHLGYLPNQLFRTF", "assay": "photo-crosslinking pull-down", "details": "HeLa lysate, UV, biotin CP, RNA 1-12, DNA 13-25, pull-down: HeLa RIPA lysate, 4 C, UV 6 min on ice, 2 M NaCl washes, protein in an extract, label: none on BP, CP carries biotin and diazirine"}, "[6]": {"target": "T4, DUS3L (endogenous) (Homo sapiens (HeLa)) (UniProt Q96G46)", "T4 sequence (looked up, limits assumed)": "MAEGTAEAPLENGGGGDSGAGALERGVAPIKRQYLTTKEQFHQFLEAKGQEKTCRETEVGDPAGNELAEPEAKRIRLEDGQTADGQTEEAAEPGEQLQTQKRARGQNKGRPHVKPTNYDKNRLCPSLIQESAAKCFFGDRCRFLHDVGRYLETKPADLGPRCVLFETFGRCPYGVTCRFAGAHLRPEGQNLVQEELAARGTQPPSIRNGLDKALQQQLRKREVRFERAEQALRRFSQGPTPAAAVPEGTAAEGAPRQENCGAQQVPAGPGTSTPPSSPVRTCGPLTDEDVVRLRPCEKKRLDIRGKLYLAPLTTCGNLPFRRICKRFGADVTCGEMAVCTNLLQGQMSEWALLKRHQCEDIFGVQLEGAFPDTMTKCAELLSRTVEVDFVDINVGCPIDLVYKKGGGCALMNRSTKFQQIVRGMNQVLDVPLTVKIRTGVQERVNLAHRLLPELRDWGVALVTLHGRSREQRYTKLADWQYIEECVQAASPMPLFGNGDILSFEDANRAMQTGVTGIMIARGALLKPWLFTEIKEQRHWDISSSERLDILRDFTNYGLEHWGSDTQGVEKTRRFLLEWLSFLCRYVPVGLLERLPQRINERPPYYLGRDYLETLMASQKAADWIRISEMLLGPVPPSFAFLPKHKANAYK", "assay": "photo-crosslinking pull-down, PRM MS", "details": "UV, biotin CP, RNA 1-7, DNA 8-20, pull-down: HeLa RIPA lysate, 4 C, UV 6 min on ice, 2 M NaCl washes, protein in an extract, label: none on BP"}, "[7]": {"target": "RBMX (endogenous) (Homo sapiens (HeLa)) (UniProt P38159)", "assay": "photo-crosslinking pull-down, PRM MS", "details": "UV, biotin CP, RNA 1-7, DNA 8-20, pull-down: HeLa RIPA lysate, 4 C, UV 6 min on ice, 2 M NaCl washes, protein in an extract, label: none on BP"}, "[8]": {"target": "T3, DDX1 (endogenous) (Homo sapiens (HeLa))", "assay": "photo-crosslinking pull-down, PRM MS, immunoblot", "details": "UV, biotin CP, RNA 1-7, DNA 8-20, pull-down: HeLa RIPA lysate, 4 C, UV 6 min on ice, 2 M NaCl washes, protein in an extract, label: none on BP"}, "[9]": {"target": "T2, SSBP1 (endogenous) (Homo sapiens (HeLa))", "assay": "photo-crosslinking pull-down, DIA MS, immunoblot", "details": "vs N2, HeLa lysate, UV, biotin CP; m6A at position 3; RNA 1-9, DNA 10-22; pull-down: HeLa RIPA lysate, 4 C, UV 6 min on ice, 2 M NaCl washes; protein in an extract; label: none on BP, CP carries FAM or biotin and diazirine"}, "[10]": {"details": "HeLa lysate, unmodified, CP carries biotin and diazirine"}, "[11]": {"details": "vs N4, HeLa lysate, 2'-O-methyl A at position 1, CP carries biotin and …"}, "[12]": {"details": "vs N2, HeLa lysate, m6A at position 3"}}, "note": "For at least one entry, the source does not settle the construct or the ends of the probe. Where cells or extracts were used, other partners may take part. For some of these results: Weaker means in comparison with the reference protein, sequence or condition of that experiment. For some of these results: At least one verdict rests on a figure or table, not on a statement of the authors. For some of these results: Protein sequences can lack the tags named with them. For some of these results: The direction of at least one scale is not stated here."}
{"sequence": "GGACUGUACTGAATGCCAAAGC [BP-A(m6A)]", "values": [{"measurement": "binding result", "setting": "[1]; HeLa lysate, UV, biotin CP, unmodified A", "value": "binds more weakly"}, {"measurement": "binding result", "setting": "[2]; HeLa lysate, unmodified A", "value": "binds more weakly"}, {"measurement": "binding result", "setting": "[3]", "value": "binds more weakly"}, {"measurement": "binding result", "setting": "[4]; HeLa lysate, unmodified A", "value": "binds more weakly"}]}
{"sequence": "GAGUCAGUCAAGTGAATGCCAAAGC [BP-Am-6]", "values": [{"measurement": "binding result", "setting": "[5]; 2'-O-methyl A at position 6", "value": "binds"}]}
{"sequence": "AAGAUCGTGAATGCCAAAGC [BP-A(Am)]", "values": [{"measurement": "binding result", "setting": "[6]; [10]", "value": "binds more weakly"}, {"measurement": "binding result", "setting": "[7]; [10]", "value": "binds more weakly"}, {"measurement": "binding result", "setting": "[8]; [10]", "value": "binds more weakly"}]}
{"sequence": "GAGUCAGUCAAGTGAATGCCAAAGC [BP-A-6(Am)]", "values": [{"measurement": "binding result", "setting": "[5]; unmodified", "value": "binds more weakly"}]}
{"sequence": "AAGAUCGTGAATGCCAAAGC [BP-Am]", "values": [{"measurement": "binding signal", "setting": "[6]; [11]", "value": 2, "unit": "fold Am/A"}, {"measurement": "binding signal", "setting": "[7]; [11]", "value": 2, "unit": "fold Am/A"}, {"measurement": "binding signal", "setting": "[8]; [11]", "value": 2.18, "unit": "fold Am/A"}]}
{"sequence": "GGACUGUACTGAATGCCAAAGC [BP-m6A]", "values": [{"measurement": "binding result", "setting": "[1]; 2.41-14.37 fold over N2 given as range for YTHDC2 and YTHDF1-3 (DIA), m6A at position 3", "value": "binds"}, {"measurement": "binding signal", "setting": "[2]; [12]", "value": 3.21, "unit": "fold m6A/A"}, {"measurement": "binding signal", "setting": "[4]; [12]", "value": 2.24, "unit": "fold m6A/A"}, {"measurement": "binding signal", "setting": "[9]", "value": 12.4, "unit": "fold m6A/A"}]}
